Results from article PMC10261145, “Ceramide sensing by human SPT-ORMDL complex for establishing sphingolipid homeostasis” (Nature Communications, 2023).
These are yes or no findings as the source states them, for the method shown. Some results given as binding are weak or reduced against the parent protein; the word gives no strength.

T1: SPT complex with Ile503 of SPTLC2 replaced by arginine (human) (UniProt O15269+O15270+Q969W0)
T1 sequence 1: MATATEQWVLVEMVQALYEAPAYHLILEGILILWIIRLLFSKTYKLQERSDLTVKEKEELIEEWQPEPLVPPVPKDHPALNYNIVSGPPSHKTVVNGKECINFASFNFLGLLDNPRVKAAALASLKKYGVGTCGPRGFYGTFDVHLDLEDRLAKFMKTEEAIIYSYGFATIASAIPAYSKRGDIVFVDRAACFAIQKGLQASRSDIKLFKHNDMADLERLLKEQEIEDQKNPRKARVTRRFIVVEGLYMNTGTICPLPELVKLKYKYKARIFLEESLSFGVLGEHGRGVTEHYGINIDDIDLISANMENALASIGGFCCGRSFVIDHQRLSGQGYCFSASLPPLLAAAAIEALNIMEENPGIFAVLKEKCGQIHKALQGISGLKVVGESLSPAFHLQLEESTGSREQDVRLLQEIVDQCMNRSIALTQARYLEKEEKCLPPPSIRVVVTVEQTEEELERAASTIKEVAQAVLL
T1 sequence 2: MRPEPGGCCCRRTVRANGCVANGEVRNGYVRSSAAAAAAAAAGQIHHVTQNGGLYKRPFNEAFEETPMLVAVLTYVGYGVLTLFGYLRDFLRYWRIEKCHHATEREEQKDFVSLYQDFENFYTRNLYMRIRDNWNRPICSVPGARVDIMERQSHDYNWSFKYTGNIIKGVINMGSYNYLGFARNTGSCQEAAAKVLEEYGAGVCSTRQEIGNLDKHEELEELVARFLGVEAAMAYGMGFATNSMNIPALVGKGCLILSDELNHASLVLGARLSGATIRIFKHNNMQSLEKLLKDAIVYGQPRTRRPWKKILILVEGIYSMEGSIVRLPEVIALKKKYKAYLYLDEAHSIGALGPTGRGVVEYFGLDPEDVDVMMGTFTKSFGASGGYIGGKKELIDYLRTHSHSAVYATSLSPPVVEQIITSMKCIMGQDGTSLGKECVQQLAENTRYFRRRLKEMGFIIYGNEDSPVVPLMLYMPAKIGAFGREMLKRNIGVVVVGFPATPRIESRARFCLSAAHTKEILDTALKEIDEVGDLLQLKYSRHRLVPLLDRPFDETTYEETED
T1 sequence 3: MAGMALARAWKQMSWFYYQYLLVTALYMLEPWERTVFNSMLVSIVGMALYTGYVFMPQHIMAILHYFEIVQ

T2: SPT complex with the ALS-associated SPTLC1 variant Δ40-41 (Phe40/Ser41) (human) (UniProt O15269+O15270+Q969W0)
T2 sequence 1: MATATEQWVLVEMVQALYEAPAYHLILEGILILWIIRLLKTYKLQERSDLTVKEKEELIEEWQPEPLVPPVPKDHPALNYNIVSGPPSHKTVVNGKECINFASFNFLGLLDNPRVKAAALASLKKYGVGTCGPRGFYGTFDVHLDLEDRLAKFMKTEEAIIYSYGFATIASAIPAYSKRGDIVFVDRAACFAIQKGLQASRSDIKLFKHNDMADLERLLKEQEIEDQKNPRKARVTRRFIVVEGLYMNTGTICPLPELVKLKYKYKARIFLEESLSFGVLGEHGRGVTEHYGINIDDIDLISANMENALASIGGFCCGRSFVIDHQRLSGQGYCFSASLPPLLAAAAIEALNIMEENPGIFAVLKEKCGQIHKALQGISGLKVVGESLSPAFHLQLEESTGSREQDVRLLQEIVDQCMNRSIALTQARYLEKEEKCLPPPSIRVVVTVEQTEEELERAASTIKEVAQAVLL
T2 sequence 2: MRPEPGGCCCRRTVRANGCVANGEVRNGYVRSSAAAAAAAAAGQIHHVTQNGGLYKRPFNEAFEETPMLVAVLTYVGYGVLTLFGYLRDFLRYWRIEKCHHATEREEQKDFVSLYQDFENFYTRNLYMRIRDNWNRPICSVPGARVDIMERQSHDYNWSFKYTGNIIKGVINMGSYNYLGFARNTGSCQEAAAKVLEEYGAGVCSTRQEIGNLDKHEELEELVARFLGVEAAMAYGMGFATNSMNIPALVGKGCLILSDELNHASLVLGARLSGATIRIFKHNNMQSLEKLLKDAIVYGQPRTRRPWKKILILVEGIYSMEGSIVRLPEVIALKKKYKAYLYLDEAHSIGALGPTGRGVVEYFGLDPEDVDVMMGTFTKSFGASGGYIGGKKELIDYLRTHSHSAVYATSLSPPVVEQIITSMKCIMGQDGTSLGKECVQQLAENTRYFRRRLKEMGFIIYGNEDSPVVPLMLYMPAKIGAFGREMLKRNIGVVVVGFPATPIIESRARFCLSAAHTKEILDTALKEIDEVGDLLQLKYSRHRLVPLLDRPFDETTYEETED
T2 sequence 3: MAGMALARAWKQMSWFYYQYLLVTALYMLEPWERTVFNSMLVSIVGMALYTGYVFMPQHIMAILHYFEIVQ

T3: serine palmitoyltransferase (SPT) complex (SPTLC1, SPTLC2, SPTssa) (human) (UniProt O15269+O15270+Q969W0)
T3 sequence 1: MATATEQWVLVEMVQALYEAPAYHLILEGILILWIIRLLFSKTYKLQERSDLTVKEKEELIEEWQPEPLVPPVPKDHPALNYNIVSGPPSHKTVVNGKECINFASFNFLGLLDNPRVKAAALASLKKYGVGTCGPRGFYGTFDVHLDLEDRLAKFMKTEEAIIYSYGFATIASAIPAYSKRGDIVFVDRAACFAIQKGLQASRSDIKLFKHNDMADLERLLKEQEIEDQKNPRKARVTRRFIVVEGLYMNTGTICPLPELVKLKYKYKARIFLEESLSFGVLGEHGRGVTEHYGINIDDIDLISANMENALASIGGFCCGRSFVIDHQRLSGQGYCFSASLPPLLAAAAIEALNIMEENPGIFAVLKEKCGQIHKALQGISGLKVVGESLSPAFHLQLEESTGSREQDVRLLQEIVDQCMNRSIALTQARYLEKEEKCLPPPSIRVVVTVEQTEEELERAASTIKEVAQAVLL
T3 sequence 2: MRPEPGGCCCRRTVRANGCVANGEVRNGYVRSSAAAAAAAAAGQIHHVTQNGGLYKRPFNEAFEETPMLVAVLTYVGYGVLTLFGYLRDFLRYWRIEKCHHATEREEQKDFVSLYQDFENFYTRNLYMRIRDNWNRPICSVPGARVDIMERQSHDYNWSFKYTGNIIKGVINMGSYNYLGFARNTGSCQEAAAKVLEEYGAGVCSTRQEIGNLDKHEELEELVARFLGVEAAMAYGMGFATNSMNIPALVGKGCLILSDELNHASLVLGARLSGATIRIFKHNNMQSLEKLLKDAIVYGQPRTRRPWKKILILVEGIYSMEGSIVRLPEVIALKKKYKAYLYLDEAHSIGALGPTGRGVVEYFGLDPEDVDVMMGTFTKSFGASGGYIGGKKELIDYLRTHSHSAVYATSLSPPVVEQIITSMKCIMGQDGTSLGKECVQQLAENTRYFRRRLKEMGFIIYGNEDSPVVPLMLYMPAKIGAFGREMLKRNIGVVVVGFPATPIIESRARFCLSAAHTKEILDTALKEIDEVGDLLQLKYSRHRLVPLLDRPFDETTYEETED
T3 sequence 3: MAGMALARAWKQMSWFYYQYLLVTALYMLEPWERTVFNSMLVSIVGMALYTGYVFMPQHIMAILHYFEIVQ

T4: SPT complex with the ALS-associated SPTLC1 variant Δ39 (Leu39) (human) (UniProt O15269+O15270+Q969W0)
T4 sequence 1: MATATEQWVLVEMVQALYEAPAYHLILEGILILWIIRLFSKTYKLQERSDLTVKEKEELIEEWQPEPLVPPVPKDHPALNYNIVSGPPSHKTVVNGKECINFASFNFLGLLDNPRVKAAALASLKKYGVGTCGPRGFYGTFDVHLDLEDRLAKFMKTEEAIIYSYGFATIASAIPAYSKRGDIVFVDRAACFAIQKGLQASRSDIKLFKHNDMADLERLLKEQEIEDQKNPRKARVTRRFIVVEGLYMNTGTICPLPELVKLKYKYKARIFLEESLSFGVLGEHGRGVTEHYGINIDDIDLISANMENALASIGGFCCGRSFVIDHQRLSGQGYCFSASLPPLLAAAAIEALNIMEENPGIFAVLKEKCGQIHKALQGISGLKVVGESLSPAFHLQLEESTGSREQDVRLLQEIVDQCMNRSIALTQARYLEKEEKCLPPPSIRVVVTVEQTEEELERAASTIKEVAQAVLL
T4 sequence 2: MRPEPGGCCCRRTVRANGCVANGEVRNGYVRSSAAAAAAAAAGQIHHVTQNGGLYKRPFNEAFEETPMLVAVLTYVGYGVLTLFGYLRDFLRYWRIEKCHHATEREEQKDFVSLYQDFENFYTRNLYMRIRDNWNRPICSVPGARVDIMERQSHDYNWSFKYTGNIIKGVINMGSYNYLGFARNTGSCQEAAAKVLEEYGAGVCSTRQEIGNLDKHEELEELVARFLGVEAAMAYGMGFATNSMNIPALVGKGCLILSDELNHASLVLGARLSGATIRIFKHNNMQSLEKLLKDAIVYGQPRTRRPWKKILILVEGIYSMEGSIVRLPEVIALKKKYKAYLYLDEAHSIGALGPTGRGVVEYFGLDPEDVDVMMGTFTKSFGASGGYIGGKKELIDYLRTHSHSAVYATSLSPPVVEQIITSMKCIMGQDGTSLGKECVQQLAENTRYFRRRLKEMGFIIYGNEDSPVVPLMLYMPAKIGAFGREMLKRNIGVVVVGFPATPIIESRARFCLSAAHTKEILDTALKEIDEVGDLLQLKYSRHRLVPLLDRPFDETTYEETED
T4 sequence 3: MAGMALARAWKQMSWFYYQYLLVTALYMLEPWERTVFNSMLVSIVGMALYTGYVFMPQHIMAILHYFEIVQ

T5: SPT complex with SPTLC2-Y122A (human) (UniProt O15269+O15270+Q969W0)
T5 sequence 1: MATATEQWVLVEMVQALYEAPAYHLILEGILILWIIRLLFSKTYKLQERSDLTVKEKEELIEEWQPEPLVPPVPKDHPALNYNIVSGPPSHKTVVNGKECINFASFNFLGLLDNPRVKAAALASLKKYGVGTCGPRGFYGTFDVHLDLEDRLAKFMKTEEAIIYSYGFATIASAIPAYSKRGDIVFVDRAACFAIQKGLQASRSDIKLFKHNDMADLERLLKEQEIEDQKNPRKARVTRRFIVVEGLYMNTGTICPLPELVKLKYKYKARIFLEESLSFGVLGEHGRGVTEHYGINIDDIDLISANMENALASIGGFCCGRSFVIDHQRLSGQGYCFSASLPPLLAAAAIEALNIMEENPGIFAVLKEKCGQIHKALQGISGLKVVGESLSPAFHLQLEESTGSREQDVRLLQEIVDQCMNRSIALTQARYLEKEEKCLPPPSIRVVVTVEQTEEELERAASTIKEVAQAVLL
T5 sequence 2: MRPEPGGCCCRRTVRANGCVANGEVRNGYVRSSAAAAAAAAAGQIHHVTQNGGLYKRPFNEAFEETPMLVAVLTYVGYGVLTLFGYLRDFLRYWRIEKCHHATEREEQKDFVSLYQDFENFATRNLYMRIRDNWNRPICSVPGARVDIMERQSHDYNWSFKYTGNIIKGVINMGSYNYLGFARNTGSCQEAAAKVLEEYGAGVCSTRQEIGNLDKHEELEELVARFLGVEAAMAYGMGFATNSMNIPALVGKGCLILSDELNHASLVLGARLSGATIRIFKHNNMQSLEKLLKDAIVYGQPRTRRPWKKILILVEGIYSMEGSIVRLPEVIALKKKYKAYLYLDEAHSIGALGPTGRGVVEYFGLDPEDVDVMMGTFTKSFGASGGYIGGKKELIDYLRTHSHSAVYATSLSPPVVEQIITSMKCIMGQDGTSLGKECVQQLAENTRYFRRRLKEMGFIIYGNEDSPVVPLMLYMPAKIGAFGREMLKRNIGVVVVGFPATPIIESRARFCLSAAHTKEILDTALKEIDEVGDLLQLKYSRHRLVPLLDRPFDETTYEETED
T5 sequence 3: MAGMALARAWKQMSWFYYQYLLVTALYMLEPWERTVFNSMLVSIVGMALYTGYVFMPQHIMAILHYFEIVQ


Legend:
Assay in all cases: co-purification (anti-Flag affinity resin, then SEC; Coomassie-stained SDS-PAGE); subunits co-expressed in HEK293F; membranes solubilized with 1% GDN; anti-Flag G1 resin, elution with Flag peptide, Superose 6 in 25 mM HEPES pH 7.5, 150 mM NaCl, 0.01% GDN; which subunit carries the Flag tag is not stated
[1] = biological target: T1, SPT complex with Ile503 of SPTLC2 replaced by arginine (human)
[2] = biological target: T2, SPT complex with the ALS-associated SPTLC1 variant Δ40-41 (Phe40/Ser41) (human)
[3] = biological target: T3, serine palmitoyltransferase (SPT) complex (SPTLC1, SPTLC2, SPTssa) (human)
[4] = biological target: T4, SPT complex with the ALS-associated SPTLC1 variant Δ39 (Leu39) (human)
[5] = biological target: T5, SPT complex with SPTLC2-Y122A (human)

binding [1]	binding [2]	binding [3]	binding [4]	binding [5]	Binder
binds	binds	binds	binds	binds	ORMDL3 (full-length, wild type) (natural protein, human, UniProt Q8N138 1-153, looked up, ORMDL3, human, codon-optimized full-length cDNA in pCAG (new ORMDL3-FL plasmid without the 14 extra nucleotides upstream of the ORF); cDNAs were cloned 'with an N-terminal Flag tag or without a tag'; also called ORMDL3-FL; WT ORMDL3; source: HEK293F, transiently co-transfected with the SPT subunits, purified as a complex (anti-Flag resin, SEC, GDN)) MNVGTAHSEVNPNTRVMNSRGIWLSYVLAIGLLHIVLLSIPFVSVPVVWTLTNLIHNMGMYIFLHTVKGTPFETPDQGKARLLTHWEQMDYGVQFTASRKFLTITPIVLYFLTSFYTKYDQIHFVLNTVSLMSVLIPKLPQLHGVRIFGINKY
		binds			ORMDL3 with Phe63 mutated to arginine (protein, UniProt Q8N138 1-153) MNVGTAHSEVNPNTRVMNSRGIWLSYVLAIGLLHIVLLSIPFVSVPVVWTLTNLIHNMGMYIRLHTVKGTPFETPDQGKARLLTHWEQMDYGVQFTASRKFLTITPIVLYFLTSFYTKYDQIHFVLNTVSLMSVLIPKLPQLHGVRIFGINKY
